# Assay results from the supplement of paper PMC9135407.
# Several values for one entry are separate records, joined by “and”; a condition that tells them apart may be missing. Equal entries are not always repeated. Structures can show the parent of a compound that is named as a salt. ± gives the standard deviation of the averaged measurements. This is one part of the list. Baselines shift from plate to plate; read single values as rough.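 Culture-activated primary human stellate myofibroblasts, where regained lipid droplets signal inactivation. Value: share of Hoechst-counted cells above a per-plate Bodipy cutoff, in duplicate wells, with DMSO negative and nortriptyline positive controls on each plate. Hits: a control-normalized score above the plate's top-tenth-percentile nortriptyline wells, or one of a plate's three best wells. Final well concentrations are not given.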
# System: primary human hepatic stellate cells (donor 1)
# Experiment: percent Bodipy-positive cells; higher = more lipid droplet accumulation
# Settings: 48 h
# Method: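 Primary lipid accumulation screen in primary human hepatic stellate cell myofibroblasts (donor 1, passage 8) in 384-well plates. 100 nL of library compound was pin-transferred into 30 µL medium in duplicate, and cells were treated for 48 h. The 'Scaled' score combines distance from plate baseline, toxicity and reproducibility penalties, and is normalised to nortriptyline (positive) and DMSO (negative) controls on each plate. A hit is defined as scaled >0.85 or among the top 3 wells per plate.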
# [1] = library stock concentration: 10 mM
# [2] = library stock concentration: 1 mM
# [3] = library stock concentration: 3.33 mM
# [4] = library stock concentration: 2 mM
# [5] = library stock concentration: 6.9 mM
# [6] = library stock concentration: 400 uM
smiles,measurement,setting,value
CNc1ccc2oc(C[C@H]3O[C@@]4(CC[C@H]3C)O[C@H]([C@H](C)C(=O)c3ccc[nH]3)[C@H](C)C[C@H]4C)nc2c1C(=O)O,percent Bodipy-positive cells,library stock concentration: 9.5 mM,76 ± 15%
CNc1ccc2oc(C[C@H]3O[C@@]4(CC[C@H]3C)O[C@H]([C@H](C)C(=O)c3ccc[nH]3)[C@H](C)C[C@H]4C)nc2c1C(=O)O [Calcimycin],percent Bodipy-positive cells,[1],95.01 ± 0.88%
CC(=O)O[C@@]12C[C@@H](C)[C@@]3(O)[C@@H](C=C(CO)C[C@]4(O)C(=O)C(C)=C[C@@H]34)[C@@H]1C2(C)C [Prostratin],percent Bodipy-positive cells,[2],64.3 ± 4%
CCN1C[C@]2(COC(=O)c3ccccc3N3C(=O)C[C@H](C)C3=O)CC[C@H](OC)[C@@]34[C@@H]5C[C@H]6[C@H](OC)[C@@H]5[C@](O)(C[C@@H]6OC)[C@](O)([C@@H](OC)[C@H]23)[C@@H]14 [Methyllycaconitine citrate],percent Bodipy-positive cells,[1],6.23 ± 0.87%
CCCCC/C=C\C/C=C\C/C=C\C/C=C\CCCC(=O)NC [Arachidonoyl-N-methyl amide],percent Bodipy-positive cells,[2],6.01 ± 0.28%
CC(N)Cc1c[nH]c2ccc(O)cc12 (stereo not drawn),percent Bodipy-positive cells,[1],7.46 ± 2%
CC(N)Cc1c[nH]c2ccc(O)cc12 (stereo not drawn) [alpha-Methyl-5-hydroxytryptamine maleate],percent Bodipy-positive cells,[1],33.3 ± 11%
CN(N=O)c1cc(O)ccc1O [Dephostatin],percent Bodipy-positive cells,[1],50.7 ± 5%
CN1C[C@H](CO)C=C2c3cccc4[nH]cc(c34)C[C@H]21 [Lysergol],percent Bodipy-positive cells,,33.6 ± 4.8%
Oc1ccc2c3c1O[C@H]1c4c(c5ccccc5n4Cc4ccccc4)C[C@@]4(O)C(C2)N(CC2CC2)CC[C@]314 [N-Benzylnaltrindole hydrochloride],percent Bodipy-positive cells,[1],100%
"BrC1C(Br)C(Br)C(Br)C(Br)C1Br (stereo not drawn) [1,2,3,4,5,6-Hexabromocyclohexane]",percent Bodipy-positive cells,[1],7.14 ± 1%
C[C@H]1CCC[C@H](O)CCCCCc2cc(O)cc(O)c2C(=O)O1,percent Bodipy-positive cells,[1],15.7 ± 13%
COc1ccc(CCN2CCC(Nc3nc4ccccc4n3Cc3ccc(F)cc3)CC2)cc1 [Astemizole],percent Bodipy-positive cells,library stock concentration: 4.4 mM,98.1% and 98.3%
same,percent Bodipy-positive cells,[1],97.6 ± 3.5%
CC(=O)Nc1ccc(OC[C@](C)(O)C(=O)Nc2ccc([N+](=O)[O-])c(C(F)(F)F)c2)cc1 [Andarine],percent Bodipy-positive cells,[3],11.4 ± 0.14%
same,percent Bodipy-positive cells,[1],22.4 ± 4.8%
CC(=O)O[C@H]1C[C@H](O[C@H]2[C@@H](O)C[C@H](O[C@H]3[C@@H](O)C[C@H](O[C@H]4CC[C@@]5(C)[C@H](CC[C@@H]6[C@@H]5C[C@@H](O)[C@]5(C)[C@@H](C7=CC(=O)OC7)CC[C@]65O)C4)O[C@@H]3C)O[C@@H]2C)O[C@H](C)[C@H]1O[C@@H]1O[C@H](CO)[C@@H](O)[C@H](O)[C@H]1O [Lanatoside C],percent Bodipy-positive cells,,75.1 ± 6.2%
CC(=O)O[C@H]1C[C@H](O[C@H]2[C@@H](O)C[C@H](O[C@H]3[C@@H](O)C[C@H](O[C@H]4CC[C@@]5(C)[C@H](CC[C@@H]6[C@@H]5C[C@@H](O)[C@]5(C)[C@@H](C7=CC(=O)OC7)CC[C@]65O)C4)O[C@@H]3C)O[C@@H]2C)O[C@H](C)[C@H]1O[C@@H]1O[C@H](CO)[C@@H](O)[C@H](O)[C@H]1O [Lanatoside c],percent Bodipy-positive cells,[4],89.2 ± 1.8%
same,percent Bodipy-positive cells,[1],92.8 ± 1.5%
Oc1cc2c(cc1O)[C@H]1c3ccccc3CN[C@@H]1CC2 (racemic) [Dihydrexidine hydrochloride],percent Bodipy-positive cells,[1],50.7 ± 0.79%
c1ccc(C2(c3ccccc3)CC2C2=NCCN2)cc1 (stereo not drawn) [Cibenzoline succinate],percent Bodipy-positive cells,[1],66.2 ± 3.7%
CCCN(CCC)C1CCc2ccc(O)cc2C1 (stereo not drawn) [R-(+)-7-Hydroxy-DPAT hydrobromide],percent Bodipy-positive cells,[1],35.9 ± 11%
CCCN(CCC)C1CCc2ccc(O)cc2C1 (stereo not drawn) [7-Hydroxy-DPAT hydrobromide],percent Bodipy-positive cells,[1],6.69 ± 0.77%
CCCN(CCC)C1CCc2ccc(O)cc2C1 (stereo not drawn) [(?)-7-Hydroxy-DPAT hydrobromide],percent Bodipy-positive cells,[1],58.8 ± 3.6%
CC1=C2[C@H]3OC(=O)[C@@H](C)[C@@H]3CC[C@@]2(C)C=CC1=O [alpha-Santonin],percent Bodipy-positive cells,,8.21 ± 3.3%
C/C=C1\C[C@@H](C)[C@](O)(CO)C(=O)OCC2=CCN3CC[C@@H](OC1=O)[C@@H]23 [Retrorsine],percent Bodipy-positive cells,,33.5 ± 3.9%
C[C@](O)(COc1ccc(C#N)cc1)C(=O)Nc1ccc(C#N)c(C(F)(F)F)c1,percent Bodipy-positive cells,[3],4.47 ± 0.085%
same,percent Bodipy-positive cells,[1],11.2 ± 2.8%
CCC(N)C(O)c1ccc(O)c(O)c1 (stereo not drawn) [Ethylnorepinephrine hydrochloride],percent Bodipy-positive cells,library stock concentration: 8.6 mM,5.68 ± 0.8%
same,percent Bodipy-positive cells,[1],33.8 ± 4.1%
c1cncc([C@@H]2CCCN2)c1 [Nornicotine],percent Bodipy-positive cells,[1],18.2 ± 3.5%
CC(C)n1cnc2c(C(=O)N[C@H]3CN4CCC3CC4)cc(Cl)cc21,percent Bodipy-positive cells,[1],38.6 ± 5.1%
Oc1cc(Cl)ccc1Oc1ccc(Cl)cc1Cl [Triclosan],percent Bodipy-positive cells,[5],56.1 ± 7.6%
same,percent Bodipy-positive cells,[1],59.3 ± 12%
CN1CCC[C@@H]1Cc1c[nH]c2ccc(Nc3ncccc3[N+](=O)[O-])cc12,percent Bodipy-positive cells,[1],41.8 ± 14%
CC1(C)C(C=C(Cl)Cl)C1C(=O)OC(C#N)c1cccc(Oc2ccccc2)c1 (stereo not drawn),percent Bodipy-positive cells,[1],65.7 ± 8.1%
CC1(C)C(C=C(Cl)Cl)C1C(=O)OC(C#N)c1cccc(Oc2ccccc2)c1 (stereo not drawn) [Cypermethrin],percent Bodipy-positive cells,library stock concentration: 12 mM,56.9 ± 6.9%
O=S(=O)(c1c(O)c(Cl)cc(Cl)c1Cl)c1c(O)c(Cl)cc(Cl)c1Cl [p38 MAP Kinase Inhibitor IV],percent Bodipy-positive cells,[3],14.9 ± 1.3%
C[N+]1([O-])[C@@H]2C[C@@H](OC(=O)[C@H](CO)c3ccccc3)C[C@H]1[C@@H]1O[C@@H]12 (stereo partly drawn) [Scopolamin-N-oxide hydrobromide],percent Bodipy-positive cells,,17.9 ± 3.9%
C[C@]12N[C@H](Cc3ccccc31)c1ccccc12 [MK-801 (Dizocilpine)],percent Bodipy-positive cells,[3],8.13 ± 2.2%
same,percent Bodipy-positive cells,[1],25 ± 14%
C[C@]12N[C@H](Cc3ccccc31)c1ccccc12 [Dizocilpine maleate],percent Bodipy-positive cells,,53.5 ± 13%
same,percent Bodipy-positive cells,library stock concentration: 5.9 mM,31.4 ± 3.9%
NCCc1ccccn1,percent Bodipy-positive cells,[1],7.03 ± 2.3%
CCCCC/C=C\C/C=C\C/C=C\C/C=C\CCCC(=O)N[C@H](C)COP(=O)(O)O [R-1 Methanandamide Phosphate],percent Bodipy-positive cells,[2],10.6 ± 1.8%
CO[C@@H]1C[C@@H](C[C@H]2CC[C@H](C)[C@H]([C@@H](C)C(=O)O)O2)O[C@]2(O[C@](C)([C@H]3CC[C@@](C)([C@@H]4O[C@@H]([C@H]5O[C@@](O)(CO)[C@H](C)C[C@@H]5C)C[C@@H]4C)O3)C[C@H]2C)[C@@H]1C [Nigericin],percent Bodipy-positive cells,[5],72.7 ± 12%
COC(=O)/C=C/C(=O)N[C@@H]1CC[C@@]2(O)[C@H]3Cc4ccc(O)c5c4[C@@]2(CCN3CC2CC2)[C@H]1O5,percent Bodipy-positive cells,[1],29.6 ± 3%
O=C1CCCN1CC#CCN1CCCC1 [Oxotremorine sesquifumarate],percent Bodipy-positive cells,library stock concentration: 9.7 mM,9.39 ± 1.2%
O=C1CCCN1CC#CCN1CCCC1 [Oxotremorine sesquifumarate salt],percent Bodipy-positive cells,[1],27.4 ± 4.5%
O[C@@H]1CCCC[C@H]1N1CCC(c2ccccc2)CC1 [L(-)-vesamicol hydrochloride],percent Bodipy-positive cells,,8.37 ± 3%
Cc1sc2c(c1C)C(c1ccc(Cl)cc1)=N[C@H](CC(=O)OC(C)(C)C)c1nnc(C)n1-2,percent Bodipy-positive cells,library stock concentration: 80 uM,30.9 ± 1.2%
same,percent Bodipy-positive cells,[6],31.1 ± 2.4%
same,percent Bodipy-positive cells,[4],29.8 ± 5.4%
same,percent Bodipy-positive cells,[1],41.5 ± 5.3%
C[C@]12CC[C@H]3[C@@H](CC[C@@]45O[C@@H]4C(O)=C(C#N)C[C@]35C)[C@@H]1CC[C@@H]2O,percent Bodipy-positive cells,[1],30.1 ± 2%
C[C@]12CC[C@H]3[C@@H](CC[C@@]45O[C@@H]4C(O)=C(C#N)C[C@]35C)[C@@H]1CC[C@@H]2O [Trilostane],percent Bodipy-positive cells,[3],15.4 ± 1.6%
same,percent Bodipy-positive cells,[1],22.1 ± 0.45%
O=C(N/N=C/c1ccc([N+](=O)[O-])o1)c1cc([N+](=O)[O-])cc([N+](=O)[O-])c1O,percent Bodipy-positive cells,[1],27.6 ± 11%
"NC(Cn1oc(=O)[nH]c1=O)C(=O)O (single isomer, unassigned; (+)) [(+)-Quisqualic acid]",percent Bodipy-positive cells,[1],12.5 ± 5%
CCCC[C@H]1C(=O)O[C@H](C)[C@H](NC(=O)c2cccc(NC=O)c2OC)C(=O)O[C@@H](C)[C@@H]1OC(=O)CC(C)C [2-methoxyantimycin A3],percent Bodipy-positive cells,library stock concentration: 9.4 mM,89.5 ± 7.8%
C[C@H]1O[C@@H](O[C@@H]2C[C@H](O)[C@]3(CO)[C@H]4[C@H](O)C[C@]5(C)[C@H](C6=CC(=O)OC6)CC[C@]5(O)[C@@H]4CC[C@]3(O)C2)[C@@H](O)[C@H](O)[C@H]1O.O.O.O.O.O.O.O.O [Ouabain],percent Bodipy-positive cells,[3],76.8 ± 2.4%
same,percent Bodipy-positive cells,[1],94.2 ± 3.2%
NNC(=O)c1ccc(O)cc1 [4-Hydroxybenzhydrazide],percent Bodipy-positive cells,[1],26.5 ± 15%
O=C1CSC(c2ccccc2Cl)c2cc(Cl)ccc2N1 (stereo not drawn),percent Bodipy-positive cells,[1],7.79 ± 2.8%
same,percent Bodipy-positive cells,library stock concentration: 15.4 mM,25.3 ± 1.8%
CCCOc1ccc2[nH]cc(C3=CCNCC3)c2n1,percent Bodipy-positive cells,[1],46.1 ± 1.4%
COc1ccc(Cc2nccc3cc(OC)c(OC)cc23)cc1OC [Papaverine hydrochloride],percent Bodipy-positive cells,,30.1 ± 6.4%
same,percent Bodipy-positive cells,library stock concentration: 5.3 mM,4.57 ± 1.3%
same,percent Bodipy-positive cells,[1],21.2% and 40.2%
CCCCC/C=C\C/C=C\C/C=C\C/C=C\CCCC(=O)NC[C@@H](C)O [R-2 Methanandamide],percent Bodipy-positive cells,[2],12.2 ± 8.3%
CNC1=Nc2ccc(Cl)cc2C(c2ccccc2)=[N+]([O-])C1,percent Bodipy-positive cells,[1],17.2 ± 4%
C[C@@H]1NCCc2cc(O)c(O)cc21 [Salsolinol hydrobromide],percent Bodipy-positive cells,,35.3 ± 12%
CCC1(CC)C(=O)C=CNC1=O [Pyrithyldione],percent Bodipy-positive cells,,9.78 ± 3.6%
same,percent Bodipy-positive cells,[1],41.6 ± 1.4%
NCCCP(=O)(O)O [3-Aminopropylphosphonic acid],percent Bodipy-positive cells,[1],37.1 ± 6.2%
CNCCc1c[nH]c2ccc(O)cc12 [N-omega-Methyl-5-hydroxytryptamine oxalate salt],percent Bodipy-positive cells,[1],34.8 ± 8.1%
Cc1c(N)nc(C(CC(N)=O)NCC(N)C(N)=O)nc1C(=O)NC(C(=O)NC(C)C(O)C(C)C(=O)NC(C(=O)NCCc1nc(-c2nc(C(=O)NCCC[S+](C)C)cs2)cs1)C(C)O)C(O[C@@H]1O[C@@H](CO)[C@@H](O)[C@H](O)[C@@H]1O[C@H]1O[C@H](CO)[C@@H](O)[C@H](OC(N)=O)[C@@H]1O)c1cnc[nH]1 (stereo partly drawn) [Bleomycin Sulfate],percent Bodipy-positive cells,[3],11.7 ± 2%
same,percent Bodipy-positive cells,[1],24.8 ± 11%
CCCCC/C=C\C/C=C\C/C=C\C/C=C\CCCC(=O)NC(CO)CO [Arachidonoyl Serinol],percent Bodipy-positive cells,[2],14.5 ± 1.4%
Cc1n[nH]c2ccc(-c3cncc(OC[C@@H](N)Cc4c[nH]c5ccccc45)c3)cc12,percent Bodipy-positive cells,[6],98 ± 1.1%
CC(C)(c1ccc(OCC2CO2)cc1)c1ccc(OCC2CO2)cc1 (stereo not drawn),percent Bodipy-positive cells,[2],11.9 ± 5.7%
same,percent Bodipy-positive cells,[1],10 ± 2.3%
same,percent Bodipy-positive cells,library stock concentration: 14.7 mM,17.7 ± 3.9%
